Laboratory results as given in the supplement of paper PMC12823440, “Inhibitors supercharge kinase turnover through native proteolytic circuits” (Nature, 2025).
The list shows a part of the results. Hit calls seldom repeat between salt and free forms of one compound.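 In K562 cells expressing nanoluciferase-fused kinases, luminescence was recorded at 4 h intervals between 2 and 18 h, normalized as percent of control with DMSO at 100% and a positive control at 0%. A significant (2 sigma) signal drop marks a time point as decreased. The authors' rule for a hit is not shown and takes in more than the number of time points.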

Protein sequences, listed by entry. Tags and fused reporters are not part of them. Lines headed by an entry give the natural chain unless they say otherwise; changes in a name come on top.
UniProt O15530: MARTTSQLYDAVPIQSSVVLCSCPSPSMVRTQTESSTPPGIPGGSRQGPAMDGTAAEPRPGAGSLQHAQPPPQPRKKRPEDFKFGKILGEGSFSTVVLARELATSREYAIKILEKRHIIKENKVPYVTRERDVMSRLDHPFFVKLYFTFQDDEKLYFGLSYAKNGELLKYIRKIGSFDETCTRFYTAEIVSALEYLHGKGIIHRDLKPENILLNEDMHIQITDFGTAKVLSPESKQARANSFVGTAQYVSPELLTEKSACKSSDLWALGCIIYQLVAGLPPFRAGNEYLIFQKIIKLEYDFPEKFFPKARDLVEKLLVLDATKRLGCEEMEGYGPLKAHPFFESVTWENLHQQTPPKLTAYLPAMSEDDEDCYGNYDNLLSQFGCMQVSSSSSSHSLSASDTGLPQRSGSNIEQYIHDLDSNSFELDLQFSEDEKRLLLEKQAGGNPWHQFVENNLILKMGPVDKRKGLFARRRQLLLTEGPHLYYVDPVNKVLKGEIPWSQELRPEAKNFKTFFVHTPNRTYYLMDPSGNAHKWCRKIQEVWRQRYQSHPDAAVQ
UniProt P42356, whole entry, looked up: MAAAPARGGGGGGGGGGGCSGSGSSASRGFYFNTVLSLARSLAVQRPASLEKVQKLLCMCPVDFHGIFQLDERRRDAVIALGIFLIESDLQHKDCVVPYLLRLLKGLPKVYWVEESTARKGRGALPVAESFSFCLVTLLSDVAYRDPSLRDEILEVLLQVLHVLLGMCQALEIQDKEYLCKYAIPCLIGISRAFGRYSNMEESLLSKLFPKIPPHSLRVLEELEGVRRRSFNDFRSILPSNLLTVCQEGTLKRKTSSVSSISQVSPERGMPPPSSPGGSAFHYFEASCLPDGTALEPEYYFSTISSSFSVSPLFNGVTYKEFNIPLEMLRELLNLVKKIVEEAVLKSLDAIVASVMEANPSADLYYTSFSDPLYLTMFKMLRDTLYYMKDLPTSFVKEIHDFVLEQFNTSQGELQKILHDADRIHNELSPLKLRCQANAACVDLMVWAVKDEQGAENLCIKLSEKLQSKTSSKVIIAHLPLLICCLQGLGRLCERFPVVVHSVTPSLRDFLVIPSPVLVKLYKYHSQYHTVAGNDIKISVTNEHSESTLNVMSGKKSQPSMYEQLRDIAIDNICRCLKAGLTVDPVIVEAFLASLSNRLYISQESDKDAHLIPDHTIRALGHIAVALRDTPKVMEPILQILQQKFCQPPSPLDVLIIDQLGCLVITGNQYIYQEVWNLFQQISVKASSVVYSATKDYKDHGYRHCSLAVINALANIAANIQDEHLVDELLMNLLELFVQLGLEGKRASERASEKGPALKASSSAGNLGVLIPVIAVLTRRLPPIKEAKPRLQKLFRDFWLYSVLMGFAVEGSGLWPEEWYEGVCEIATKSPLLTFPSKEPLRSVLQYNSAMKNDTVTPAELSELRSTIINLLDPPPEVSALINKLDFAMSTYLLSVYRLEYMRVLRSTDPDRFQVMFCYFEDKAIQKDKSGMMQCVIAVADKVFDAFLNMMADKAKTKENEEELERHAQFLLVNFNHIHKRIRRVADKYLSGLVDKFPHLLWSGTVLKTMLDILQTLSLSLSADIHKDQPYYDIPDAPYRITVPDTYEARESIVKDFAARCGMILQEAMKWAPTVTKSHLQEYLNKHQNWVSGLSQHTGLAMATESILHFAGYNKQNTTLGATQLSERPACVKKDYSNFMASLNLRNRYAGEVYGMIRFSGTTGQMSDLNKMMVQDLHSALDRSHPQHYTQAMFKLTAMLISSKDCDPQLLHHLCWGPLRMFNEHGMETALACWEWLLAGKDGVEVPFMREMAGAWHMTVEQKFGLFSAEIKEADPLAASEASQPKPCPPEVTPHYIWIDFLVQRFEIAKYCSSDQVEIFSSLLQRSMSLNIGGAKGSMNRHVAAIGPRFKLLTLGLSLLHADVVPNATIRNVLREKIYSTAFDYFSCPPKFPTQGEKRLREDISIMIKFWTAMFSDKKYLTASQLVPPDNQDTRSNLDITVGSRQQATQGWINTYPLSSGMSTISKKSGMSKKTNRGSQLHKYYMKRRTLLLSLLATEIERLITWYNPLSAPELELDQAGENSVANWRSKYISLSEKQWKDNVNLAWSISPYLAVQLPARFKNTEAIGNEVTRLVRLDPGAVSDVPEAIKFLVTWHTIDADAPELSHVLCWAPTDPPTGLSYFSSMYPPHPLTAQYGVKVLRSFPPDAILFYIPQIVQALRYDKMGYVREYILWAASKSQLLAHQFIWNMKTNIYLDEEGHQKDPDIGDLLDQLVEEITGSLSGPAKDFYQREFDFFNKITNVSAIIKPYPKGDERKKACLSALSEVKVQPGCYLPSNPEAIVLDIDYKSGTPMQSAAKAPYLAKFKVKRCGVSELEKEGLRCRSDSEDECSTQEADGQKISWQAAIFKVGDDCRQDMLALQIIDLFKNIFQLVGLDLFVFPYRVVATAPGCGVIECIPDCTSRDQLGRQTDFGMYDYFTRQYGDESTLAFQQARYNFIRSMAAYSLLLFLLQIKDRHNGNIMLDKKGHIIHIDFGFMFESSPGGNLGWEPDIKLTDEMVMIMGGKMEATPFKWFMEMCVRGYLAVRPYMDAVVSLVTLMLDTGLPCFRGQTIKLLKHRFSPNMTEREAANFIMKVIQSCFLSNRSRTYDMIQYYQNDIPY
UniProt Q13131: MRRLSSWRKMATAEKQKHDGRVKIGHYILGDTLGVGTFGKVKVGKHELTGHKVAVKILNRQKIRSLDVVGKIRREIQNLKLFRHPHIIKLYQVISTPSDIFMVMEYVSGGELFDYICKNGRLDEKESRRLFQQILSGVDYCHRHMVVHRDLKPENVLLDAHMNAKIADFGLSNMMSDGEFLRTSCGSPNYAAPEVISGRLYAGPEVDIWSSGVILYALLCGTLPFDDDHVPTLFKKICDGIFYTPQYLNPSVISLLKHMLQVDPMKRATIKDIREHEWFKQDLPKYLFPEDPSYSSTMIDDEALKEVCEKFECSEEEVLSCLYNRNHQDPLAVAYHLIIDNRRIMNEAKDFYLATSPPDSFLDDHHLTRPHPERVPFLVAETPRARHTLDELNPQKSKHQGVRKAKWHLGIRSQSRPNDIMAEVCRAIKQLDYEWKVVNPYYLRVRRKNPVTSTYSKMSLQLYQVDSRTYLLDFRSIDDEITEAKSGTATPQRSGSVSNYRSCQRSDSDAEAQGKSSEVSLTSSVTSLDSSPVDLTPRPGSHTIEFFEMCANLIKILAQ
UniProt Q9BRS2: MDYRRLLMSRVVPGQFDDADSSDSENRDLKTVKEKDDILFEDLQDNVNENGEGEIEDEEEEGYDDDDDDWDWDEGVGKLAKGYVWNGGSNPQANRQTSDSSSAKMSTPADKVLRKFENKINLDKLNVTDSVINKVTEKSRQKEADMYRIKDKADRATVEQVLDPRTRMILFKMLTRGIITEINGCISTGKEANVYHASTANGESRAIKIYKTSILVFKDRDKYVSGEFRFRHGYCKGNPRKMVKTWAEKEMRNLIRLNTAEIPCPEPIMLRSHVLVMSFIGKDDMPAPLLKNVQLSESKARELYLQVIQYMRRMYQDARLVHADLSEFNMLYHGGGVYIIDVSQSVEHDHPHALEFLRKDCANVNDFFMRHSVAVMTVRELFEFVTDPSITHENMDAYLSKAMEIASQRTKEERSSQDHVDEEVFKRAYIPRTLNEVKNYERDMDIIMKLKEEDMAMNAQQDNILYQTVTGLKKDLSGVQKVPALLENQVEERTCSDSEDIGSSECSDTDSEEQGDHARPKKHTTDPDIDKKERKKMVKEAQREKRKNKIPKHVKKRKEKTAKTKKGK
UniProt Q13546: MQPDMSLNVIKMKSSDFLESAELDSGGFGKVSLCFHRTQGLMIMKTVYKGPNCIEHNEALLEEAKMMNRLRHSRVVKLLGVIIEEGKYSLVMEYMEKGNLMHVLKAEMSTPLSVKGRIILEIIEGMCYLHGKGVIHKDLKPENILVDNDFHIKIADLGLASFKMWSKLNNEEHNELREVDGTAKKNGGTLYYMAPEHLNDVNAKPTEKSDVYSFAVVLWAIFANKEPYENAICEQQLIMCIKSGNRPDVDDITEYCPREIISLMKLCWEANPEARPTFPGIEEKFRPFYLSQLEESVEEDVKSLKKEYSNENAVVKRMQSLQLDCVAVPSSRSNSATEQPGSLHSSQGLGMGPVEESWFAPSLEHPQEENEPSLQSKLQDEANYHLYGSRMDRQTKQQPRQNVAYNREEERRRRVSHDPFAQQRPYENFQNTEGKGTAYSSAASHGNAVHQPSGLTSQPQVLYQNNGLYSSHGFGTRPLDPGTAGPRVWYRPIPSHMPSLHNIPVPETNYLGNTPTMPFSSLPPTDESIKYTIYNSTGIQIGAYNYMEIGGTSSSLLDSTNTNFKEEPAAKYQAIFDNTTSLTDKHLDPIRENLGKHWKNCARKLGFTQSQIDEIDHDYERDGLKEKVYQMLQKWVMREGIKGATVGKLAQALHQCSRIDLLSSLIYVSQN
UniProt Q15418, whole entry: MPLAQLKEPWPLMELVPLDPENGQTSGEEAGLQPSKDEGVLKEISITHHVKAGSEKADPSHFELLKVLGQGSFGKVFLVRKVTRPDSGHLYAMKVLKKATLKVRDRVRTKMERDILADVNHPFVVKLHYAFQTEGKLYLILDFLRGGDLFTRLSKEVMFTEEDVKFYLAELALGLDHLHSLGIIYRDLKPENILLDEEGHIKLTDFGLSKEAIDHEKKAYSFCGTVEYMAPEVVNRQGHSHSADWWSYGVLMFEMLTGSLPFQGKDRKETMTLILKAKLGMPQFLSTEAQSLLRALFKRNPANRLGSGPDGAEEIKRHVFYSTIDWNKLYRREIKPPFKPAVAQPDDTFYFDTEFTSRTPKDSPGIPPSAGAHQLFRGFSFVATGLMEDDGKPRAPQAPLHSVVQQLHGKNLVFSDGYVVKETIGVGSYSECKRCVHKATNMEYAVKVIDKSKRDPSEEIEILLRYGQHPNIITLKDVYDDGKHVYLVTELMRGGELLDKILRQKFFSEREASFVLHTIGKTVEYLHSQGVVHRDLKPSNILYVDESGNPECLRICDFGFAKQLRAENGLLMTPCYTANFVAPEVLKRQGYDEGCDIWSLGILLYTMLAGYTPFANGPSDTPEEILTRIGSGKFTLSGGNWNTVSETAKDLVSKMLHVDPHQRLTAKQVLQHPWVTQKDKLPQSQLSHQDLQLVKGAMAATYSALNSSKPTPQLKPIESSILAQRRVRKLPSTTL
UniProt Q9NYA1, whole entry: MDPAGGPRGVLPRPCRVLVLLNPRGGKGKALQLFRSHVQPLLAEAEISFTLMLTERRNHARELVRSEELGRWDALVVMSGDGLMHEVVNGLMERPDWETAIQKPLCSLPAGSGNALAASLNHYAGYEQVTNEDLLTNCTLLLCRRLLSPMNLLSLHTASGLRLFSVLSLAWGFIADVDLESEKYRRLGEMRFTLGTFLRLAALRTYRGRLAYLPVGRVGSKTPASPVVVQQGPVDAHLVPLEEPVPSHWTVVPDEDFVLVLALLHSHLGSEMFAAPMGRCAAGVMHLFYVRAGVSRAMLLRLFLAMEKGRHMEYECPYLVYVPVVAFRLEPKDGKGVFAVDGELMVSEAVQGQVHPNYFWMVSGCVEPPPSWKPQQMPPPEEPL
UniProt Q9Y6E0: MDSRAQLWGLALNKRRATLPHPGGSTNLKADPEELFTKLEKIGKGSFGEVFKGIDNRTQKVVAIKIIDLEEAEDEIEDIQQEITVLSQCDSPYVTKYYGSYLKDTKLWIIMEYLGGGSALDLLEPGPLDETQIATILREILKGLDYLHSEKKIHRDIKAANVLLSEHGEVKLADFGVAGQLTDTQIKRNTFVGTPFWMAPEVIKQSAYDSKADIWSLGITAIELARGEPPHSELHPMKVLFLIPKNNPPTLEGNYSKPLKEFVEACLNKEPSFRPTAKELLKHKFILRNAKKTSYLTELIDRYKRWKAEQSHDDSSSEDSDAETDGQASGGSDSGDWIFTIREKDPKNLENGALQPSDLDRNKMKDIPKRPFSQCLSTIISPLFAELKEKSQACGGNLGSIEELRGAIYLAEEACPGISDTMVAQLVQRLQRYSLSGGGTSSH

Columns and labels:
Assay in all cases: kinase-Nluc reporter destabilization hit call (1 = scored as downregulated) (binary); higher = compound decreases kinase abundance
Conditions in all cases: 10 µM; K562; 2-18 h
PDPK1 = PDPK1 (UniProt O15530)
PIK4CA = PIK4CA (UniProt P42356)
PIK4CB = PIK4CB (UniProt Q9UBF8)
PLK1 = PLK1 (UniProt P53350)
PRKAA1 = PRKAA1 (UniProt Q13131)
PRKCA = PRKCA (UniProt P17252)
PTK2 = PTK2 (UniProt Q05397)
PTK2B = PTK2B (UniProt Q14289)
RAF1 = RAF1 (UniProt P04049)
[1] = target: RAF1_S257L (clone: RAF1_mut) (UniProt P04049)
RET = RET (UniProt P07949)
[2] = target: RET_M918T (clone: RET_mut) (UniProt P07949)
RIOK1 = RIOK1 (UniProt Q9BRS2)
RIPK1 = RIPK1 (UniProt Q13546)
RIPK2 = RIPK2 (UniProt O43353)
ROR2 = ROR2 (UniProt Q01974)
RPS6KA1 = RPS6KA1 (UniProt Q15418)
SPHK1 = SPHK1 (UniProt Q9NYA1)
SRC = SRC (UniProt P12931)
STK24 = STK24 (UniProt Q9Y6E0)

Measured: kinase-Nluc reporter destabilization hit call

COc1ccc(-c2cc(C(=O)NN=C(C)c3ccc(OC)c(OC)c3)[nH]n2)cc1
inactive: PDPK1 = 0 | PIK4CA 0 | PIK4CB 0 | PLK1 = 0 | PRKAA1 = 0 | PRKCA 0 | PTK2 = 0 | PTK2B 0 | RAF1 = 0 | [1] 0 | RET 0 | [2] 0 | RIOK1 = 0 | RIPK1 = 0 | RIPK2 = 0 | ROR2 = 0 | RPS6KA1 = 0 | SPHK1 = 0 | SRC 0 | STK24 = 0

CCCCCC1CC1CC1CC1CCCCCCCC(=O)OC (stereo not given)
inactive: PDPK1 = 0 | PIK4CA 0 | PIK4CB 0 | PLK1 = 0 | PRKAA1 = 0 | PRKCA 0 | PTK2B 0 | RAF1 = 0 | [1] 0 | RET 0 | [2] 0 | RIOK1 = 0 | RIPK1 = 0 | RIPK2 = 0 | ROR2 = 0 | RPS6KA1 = 0 | SPHK1 = 0 | SRC 0 | STK24 = 0
active: PTK2 = 1

COc1nccc(-c2c(-c3ccc(F)cc3)ncn2C2CCNCC2)n1
inactive: PDPK1 = 0 | PIK4CA 0 | PIK4CB 0 | PLK1 = 0 | PRKAA1 = 0 | PRKCA 0 | PTK2 = 0 | PTK2B 0 | RAF1 = 0 | [1] 0 | RET 0 | [2] 0 | RIOK1 = 0 | RIPK1 = 0 | RIPK2 = 0 | ROR2 = 0 | RPS6KA1 = 0 | SPHK1 = 0 | SRC 0 | STK24 = 0

CC#CC(=O)N1CCC[C@H]1c1nc(-c2ccc(C(=O)Nc3ccccn3)cc2)c2c(N)nccn12 [Acalabrutinib]
inactive: PDPK1 = 0 | PIK4CA 0 | PIK4CB 0 | PLK1 = 0 | PRKAA1 = 0 | PRKCA 0 | PTK2 = 0 | PTK2B 0 | RAF1 = 0 | [1] 0 | RET 0 | [2] 0 | RIOK1 = 0 | RIPK1 = 0 | RIPK2 = 0 | ROR2 = 0 | RPS6KA1 = 0 | SPHK1 = 0 | SRC 0 | STK24 = 0

C[C@@H]1O[C@@H](Oc2c(-c3ccc(O)c(O)c3)oc3cc(O)cc(O)c3c2=O)[C@H](O)[C@H](O)[C@H]1O [Quercitrin]
inactive: PDPK1 = 0 | PIK4CA 0 | PIK4CB 0 | PLK1 = 0 | PRKAA1 = 0 | PRKCA 0 | PTK2 = 0 | PTK2B 0 | RAF1 = 0 | [1] 0 | RET 0 | [2] 0 | RIOK1 = 0 | RIPK1 = 0 | RIPK2 = 0 | ROR2 = 0 | RPS6KA1 = 0 | SPHK1 = 0 | SRC 0 | STK24 = 0
